Test results: patent publication US20260125440A1, “INCRETIN ANALOGS AND USES THEREOF” (ELI LILLY AND COMPANY, priority 2019, published 2026)
Part of at least one peptide drawing is inferred or uncertain, most often the ends. At least one compound was matched to its structure with a doubt left. Marks after values point to notes of the source that are not given here. Numbered stars: 1 amine (or outer) side, 2 acyl side, 3 side chain; on linkers, the order of the positions; unused ones are H or OH. Square brackets hold non-standard residues; d marks the D form. Side chains are listed from the residue outwards. Peptide text beside a SMILES is read from it. * marks the point of attachment. ξ: configuration not given here. C20 diacid = O=C(O)CCCCCCCCCCCCCCCCCCC(=O)*; αMePhe(2-F) = C[C@](N)(Cc1ccccc1F)C(=O)O; γGlu = O=C(O)[C@H](CCC(=O)[*:2])N[*:1]; αMeY = C[C@](N)(Cc1ccc(O)cc1)C(=O)O; αMeL = CC(C)C[C@](C)(N)C(=O)O; Orn = NCCC[C@H](N)C(=O)O; ξIva = CCC(C)(N)C(=O)O; AEEA = NCCOCCOCC(=O)O; Aib = CC(C)(N)C(=O)O

Assays:
[1] = Insulin secretion during ivGTT in male Wistar rats; assay type: in vivo
Description: Methods: An intravenous glucose tolerance test (ivGTT) in Male Wistar rats is used to estimate insulinotropic potency of the Example compounds. A GLP-1R agonist, semaglutide, is used as a positive control. […] Semaglutide is used as positive control in connection with each run of Example compounds ([…] dose).
A time 0 blood sample is collected into EDTA tubes after which glucose is administered ([…], 5 mL/kg). Blood samples are collected for glucose and insulin levels at time 2, 4, 6, 10, 20 and 30 min post intravenous administration of glucose. Plasma insulin is determined using an electrochemiluminescence assay (Meso Scale; Rockville, MD).
Statistical analysis is performed using JMP with a one-way ANOVA followed by Dunnett's comparison to the vehicle control.

[2] = Weight loss, metabolism and body composition in DIO C57/B16 mice; assay type: in vivo; settings: for Δ Cholesterol / Δ Glucose / Δ Insulin / Δ Trigs: day 15 difference vs vehicle; for Fat Mass (%): difference in fat mass between days 0 and 15 (NMR); for Δ Body Weight (%): percent decrease between days 1 and 15, DIO mice
Description: Methods: To investigate the effects of the Example compounds on parameters such as weight loss, metabolism and body composition, the Example compounds are dosed to C57B16 DIO mice. These animals, although not diabetic, display insulin resistance and dyslipidemia, all characteristics of metabolic syndrome, after being placed on a high fat diet for 20 weeks.
Here, DIO male C57/B16 mice at 20 weeks old are maintained on a calorie-rich diet are used in the following studies. […] After a 3-week acclimation to the facility, which includes 1 week of vehicle acclimation dosing, the mice are randomized according to their body weight, so each experimental group of animals would have similar body weight.
All groups contain 6 mice. […] Body weight and food intake are measured daily throughout the study, including 1 day after last dose (Day 15).
Absolute changes in body weight are calculated by subtracting the body weight of the same animal prior to the first injection of molecule. On Days 0 and 15, total fat mass is measured by nuclear magnetic resonance (NMR) using an Echo Medical System (Houston, TX) instrument. On Day 15, metabolic parameters are measured using Accu-Chek® Aviva® Glucometers (Roche; Indianapolis, IN) or a Hitachi clinical blood analyzer (Roche, Indianapolis, IN). Plasma insulin is determined using an electrochemiluminescence assay (Meso Scale Discovery, Rockville, MD).
Data are presented as mean±t SEM of 6animals per group in Tables 7 and 8 below. Statistical analysis is performed using repeated measures ANOVA, followed by Dunneti's method for multiple comparisons. Significant differences are identified as * with p<0.05.

[3] = 0.15625 nmol/kg SQ daily, DIO mice
[4] = 0.625 nmol/kg SQ daily, DIO mice

SMILES: CC[C@H](C)[C@H](NC(=O)[C@H](Cc1ccccc1)NC(=O)[C@H](C)NC(=O)C(C)(CC)NC(=O)[C@H](CCC(N)=O)NC(=O)[C@H](C)NC(=O)[C@H](CCCCNC(=O)COCCOCCNC(=O)CC[C@H](NC(=O)CCCCCCCCCCCCCCCCCCC(=O)O)C(=O)O)NC(=O)[C@H](CCCN)NC(=O)[C@H](CC(=O)O)NC(=O)[C@H](CC(C)C)NC(=O)[C@](C)(CC(C)C)NC(=O)[C@@H](NC(=O)[C@H](CO)NC(=O)[C@H](Cc1ccc(O)cc1)NC(=O)[C@H](CC(=O)O)NC(=O)[C@H](CO)NC(=O)[C@@H](NC(=O)[C@](C)(Cc1ccccc1F)NC(=O)[C@@H](NC(=O)CNC(=O)[C@H](CCC(N)=O)NC(=O)C(C)(C)NC(=O)[C@@H](N)Cc1ccc(O)cc1)[C@@H](C)O)[C@@H](C)O)[C@@H](C)CC)C(=O)N[C@@H](CCC(=O)O)C(=O)N[C@@](C)(Cc1ccc(O)cc1)C(=O)N[C@@H](CC(C)C)C(=O)N[C@@H](CC(C)C)C(=O)N[C@@H](CCC(=O)O)C(=O)NCC(=O)NCC(=O)N1CCC[C@H]1C(=O)N[C@@H](CO)C(=O)N[C@@H](CO)C(=O)NCC(=O)N[C@@H](CCC(=O)O)C(=O)N1CCC[C@H]1C(=O)N1CCC[C@H]1C(=O)N1CCC[C@H]1C(=O)N[C@@H](CO)C(N)=O (some centres unmarked) [Example 2] (H-Y[Aib]QGT[αMePhe(2-F)]TSDYSI[αMeL]LD[Orn]K([AEEA-γGlu-C20 diacid])AQ[ξIva]AFIE[αMeY]LLEGGPSSGEPPPS-NH2; N-terminus assumed)
- AUC30 min of Insulin After Bolus IV Glucose ([1]; 0.1 nmol/kg SQ 16 hr prior to glucose): 69.0
- AUC30 min of Insulin After Bolus IV Glucose ([1]; 0.3 nmol/kg SQ 16 hr prior to glucose): 62.6
- AUC30 min of Insulin After Bolus IV Glucose ([1]; 1 nmol/kg SQ 16 hr prior to glucose): 72.6
- AUC30 min of Insulin After Bolus IV Glucose ([1]; 3 nmol/kg SQ 16 hr prior to glucose): 101.5
- AUC30 min of Insulin After Bolus IV Glucose ([1]; 10 nmol/kg SQ 16 hr prior to glucose): 128.8
- AUC30 min of Insulin After Bolus IV Glucose ([1]; 30 nmol/kg SQ 16 hr prior to glucose): 159.0
- Δ Body Weight ([2]; 0.15625 nmol/kg SQ daily 14 days, day 15, difference vs vehicle, DIO mice): -1.72 ± 0.04 g
- Δ Cholesterol [2, 3]: -22.00 ± 4.71 mg/dL
- Δ Glucose [2, 3]: -9.50 ± 5.21 mg/dL
- Δ Insulin [2, 3]: 14.64 ± 3.28 ng/mL
- Δ Trigs [2, 3]: 9.67 ± 7.80 mg/dL
- Fat Mass (%) [2, 3]: −1.91 ± 0.84%
- Δ Body Weight (%) ([2]; 0.15625 nmol/kg SQ daily): −2.65 ± 0.55%
- Δ Body Weight (g) ([2]; 0.625 nmol/kg SQ daily 14 days, day 15, difference vs vehicle, DIO mice): −4.48 ± 0.26* g
- Δ Cholesterol [2, 4]: −43.50 ± 3.47* mg/dL
- Δ Glucose [2, 4]: -6.17 ± 7.12 mg/dL
- Δ Insulin [2, 4]: -9.35 ± 5.61 ng/mL
- Δ Trigs [2, 4]: -3.50 ± 3.73 mg/dL
- Fat Mass (%) [2, 4]: −5.87 ± 0.94* %
- Δ Body Weight (%) ([2]; 0.625 nmol/kg SQ daily): −8.90 ± 1.38* %
- Δ Body Weight (g) ([2]; 2.5 nmol/kg SQ daily 14 days, day 15, difference vs vehicle, DIO mice): −8.62 ± 0.21* g
- Δ Cholesterol ([2]; 2.5 nmol/kg SQ daily, DIO mice): −150.33 ± 1.70* mg/dL
- Δ Glucose ([2]; 2.5 nmol/kg SQ daily, DIO mice): -13.50 ± 3.92 mg/dL
- Δ Insulin ([2]; 2.5 nmol/kg SQ daily, DIO mice): -14.01 ± 7.49 ng/mL
- Δ Trigs ([2]; 2.5 nmol/kg SQ daily, DIO mice): -2.33 ± 3.07 mg/dL
- Fat Mass (%) ([2]; 2.5 nmol/kg SQ daily, DIO mice): −11.96 ± 0.88* %
- Δ Body Weight (%) ([2]; 2.5 nmol/kg SQ daily): −17.90 ± 1.01* %
- Δ Body Weight (g) ([2]; 10 nmol/kg SQ daily 14 days, day 15, difference vs vehicle, DIO mice): −20.10 ± 0.54* g
- Δ Cholesterol ([2]; 10 nmol/kg SQ daily, DIO mice): −199.33 ± 7.02* mg/dL
- Δ Glucose ([2]; 10 nmol/kg SQ daily, DIO mice): −41.00 ± 4.18* mg/dL
- Δ Insulin ([2]; 10 nmol/kg SQ daily, DIO mice): -14.52 ± 7.39 ng/mL
- Δ Trigs ([2]; 10 nmol/kg SQ daily, DIO mice): -9.00 ± 5.09 mg/dL
- Fat Mass (%) ([2]; 10 nmol/kg SQ daily, DIO mice): −28.53 ± 1.24* %
- Δ Body Weight (%) ([2]; 10 nmol/kg SQ daily): −43.44 ± 1.30* %
- Δ Body Weight (g) ([2]; 20 nmol/kg SQ daily 14 days, day 15, difference vs vehicle, DIO mice): −21.77 ± 0.50* g
- Δ Cholesterol ([2]; 20 nmol/kg SQ daily, DIO mice): −198.00 ± 5.46* mg/dL
- Δ Glucose ([2]; 20 nmol/kg SQ daily, DIO mice): −46.08 ± 4.21* mg/dL
- Δ Insulin ([2]; 20 nmol/kg SQ daily, DIO mice): -14.73 ± 7.52 ng/mL
- Δ Trigs ([2]; 20 nmol/kg SQ daily, DIO mice): -15.83 ± 6.63 mg/dL
- Fat Mass (%) ([2]; 20 nmol/kg SQ daily, DIO mice): −28.80 ± 0.81* %
- Δ Body Weight (%) ([2]; 20 nmol/kg SQ daily): −46.79 ± 1.40* %
